# Percent effect of library compounds

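Phenotypic screen: M. tuberculosis growth, glucose 7H9 medium, 3 days; the read-out is not stated. Concentration: 500 µM. The record gives no direction; compounds that gave an IC50 in retests scored well above the rest, so higher reads as more growth inhibition. About 18,000 compounds were tested under these conditions; 7.9% (about 1,400) showed 50% or more at least once.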

The filed quantity is “Percent Effect” (%). How 0% and 100% were set is not recorded. Most values in the screen are low, and negative values occur. Compounds were drawn at random from those tested, without regard to their results.

Compound,percent effect
CC(=O)N1CCC(CSc2n[nH]c(=O)n2C)CC1,7.008%
OC1(CNCc2ccc(Br)c3cccnc23)CCOC1 (stereo not drawn),-2.464%
O=c1cc(C2CCC2)nc[nH]1,1.897%
CC(C)c1cc(N)n(C(C)C)n1,12.64%
CCC(=O)N1CCCCC1C(=O)Nc1nccs1 (stereo not drawn),12.48%
CC1(C)CC(n2cccn2)C(C)(C)O1 (stereo not drawn),-1.773%
NCCc1ccoc1,-4.008%
CNCC1CCCN(Cc2nccn2CCOC)C1 (stereo not drawn),-2.824%
CC(C)CNc1cc(CN(C)C)ccn1,7.806%
CC(C)CC(O)CNC(=O)c1cc(F)ccc1F (stereo not drawn),72.78%
Cc1cc(C(=O)NCC2CCCCO2)cc(=O)[nH]1 (stereo not drawn),-5.185%
Cc1cc(NC(=O)CN2CCOc3ccccc32)no1,-2.369%
O=C(CCc1ccoc1)Nc1cnccn1,48.76%
Cc1ccccc1OCCCNC(=O)C1COCCN1 (stereo not drawn),40.1%
CN(C)c1nc(N)nc(COC(=O)c2ccsc2)n1,-7.045%
O=C(NCc1ncc[nH]1)Nc1cccc(F)c1,20.34%
NC1CCN(C2CCSCC2)CC1,8.135%
CN(c1ccccc1C(N)=O)S(C)(=O)=O,4.696%
O=S(=O)(c1cc2ccccc2o1)N1CCOCC1,47.15%
NC(=O)c1ncsc1Cl,3.827%
CC(C)NC(=O)N1CCNCC1,-11.99%
O=C(CC1Sc2ccc(Cl)cc2NC1=O)OCCO (stereo not drawn),99.24%
CSCC(CCO)Nc1ncccc1C(F)(F)F (stereo not drawn),60.41%
CSc1ncc(CN2CCCC(NC(C)=O)C2)cn1 (stereo not drawn),-1.535%
Cc1nc(C(=O)Nc2ccc(C(N)=O)cc2)co1,-1.566%
Cc1cc(NC(=O)NC(C)C2CC2)n(C)n1 (stereo not drawn),6.669%
COc1ccc2c(c1)C(C)(O)C(=O)N2 (stereo not drawn),-2.427%
CN(CC(N)=O)Cc1cc(=O)c2cccc(Cl)c2[nH]1,4.319%
O=C1NCCC1C1(O)CCOCC1 (stereo not drawn),0.5744%
O=C(NCC[S+]([O-])c1ccccc1)c1cccnc1O (stereo not drawn),17.54%
CN1CCCN(C(=O)Nc2cccc(F)c2)CC1,5.999%
Cc1cc(NC(=O)c2cccc(N(C)C)c2)c[nH]c1=O,-7.184%
C=C(C)CN(C)C(CO)c1ccc(OC)cc1 (stereo not drawn),12.51%
COCCN1CCN(Cc2cccnc2C)CC1=O,-13.11%
COc1cc(CN(C)CCN(C)C)cc(OC)c1O,-0.3938%
Cc1nonc1CC(=O)NC(C)c1nc(C2CC2)no1 (stereo not drawn),20.76%
CCN(CC)C(=O)CCNC(=O)NC1(C)CCC1,2.91%
CC(C)N1CCC(NCCc2ccccn2)CC1,-10.99%
CCOc1cc(CN2CCC(N)CC2)ccc1O,-1.77%
O=C(c1cccc(N2CCNC2=O)c1)N1CCOCC1,-5.372%
COc1ccc(CN2CC[C@@]3(O)CCCC[C@H]3C2)cn1,-2.846%
FC(F)(F)COCCNCCn1cccn1,-0.428%
Nc1nc(N2CCCNC(=O)C2)cc([C@H]2C[C@@H](O)C2)n1,-4.326%
Cc1ccccc1C(=O)N1CC(=O)Nc2ccccc21,40.78%
CS(=O)(=O)NCCCc1cnc2ccccc2c1,37.45%
CC(=O)c1cc(C(=O)NCc2cnc(C)cn2)cs1,6.453%
OCCc1cn(Cc2ccccc2)nn1,0.3853%
COc1cccc2c1N(CC(=O)N1CCC1)CCC2,38.3%
CN(C)CCCNCCCNC(=O)c1ccco1,0.01413%
N#Cc1ccc(C(=O)Nc2cncc(Br)c2O)nc1,8.005%
CC(C)c1csc(C(=O)N2CCOc3ncccc32)n1,66.94%
COc1ccc(CN2CCN(C)C(CCO)C2)cc1 (stereo not drawn),17.33%
CCC(=O)NC1=NCCS1,17.24%
O=C(NC1CC1)N1CCN(c2ncccc2Cl)CC1,52.49%
CC(O)Cn1cccn1 (stereo not drawn),7.891%
CC(C)(C)c1cc(NC(=O)CN2CCC(O)CC2)on1,6.934%
c1cn(C2CCNC2)nn1 (stereo not drawn),6.255%
CN(C)c1ncccc1CNC(=O)NCC1CCCO1 (stereo not drawn),0.5596%
COc1ccc(CNC(=O)NCC2CC2)cn1,39.82%
O=C(C1CCC1)N1CCC(CCN2CCOCC2)CC1,0.5248%
c1csc(C2CCNCC2)n1,-6.204%
OC1(c2ccccc2Cl)CCNCC1,14.07%
CCN(CCn1cccn1)C(=O)c1cc(C(C)C)no1,46.04%
O=C(NC1CC1)c1c(F)cc(F)cc1F,11.24%
CC(C)c1ncc(C(=O)NCCN(C)S(C)(=O)=O)cn1,26.55%

For reference, 5 entries once more:

* Nc1nc(N2CCCNC(=O)C2)cc([C@H]2C[C@@H](O)C2)n1 | -4.326%
* c1csc(C2CCNCC2)n1 | -6.204%
* COc1ccc(CN2CC[C@@]3(O)CCCC[C@H]3C2)cn1 | -2.846%
* O=C(NCC[S+]([O-])c1ccccc1)c1cccnc1O (stereo not drawn) | 17.54%
* NC(=O)c1ncsc1Cl | 3.827%

Measurements from “University of Dundee, Small-Polar-MMV Screening Library” (2021), ChEMBL document CHEMBL3988442.